The list shows only some results of the screen, not a fair sample: it gathers tests that were run many times, whatever their T/C, doses with no T/C, and many T/C values between a quarter and a half above the control. Further doses and runs are listed elsewhere. T/C gives the treated animals as a percentage of the vehicle group. Some doses have a count of surviving animals in place of a T/C: the source files T/C as zero there, which appears to mark a toxic dose or a test without result, not a measured value. Some doses without a T/C left all or most animals alive at the check, yet need not have been tolerated: survival well below the control is almost never listed, so the zero probably covers shortened survival too. Survivors were counted at the toxicity check, usually on the fifth day, unless a day is given; later deaths do not show. Schedules are NCI's codes, read here as Q, the interval in days (D) or hours (H), X, the number of doses. Some entries were tested several times; the values are given in rising order. Counts like (3×) count equal records among those shown. Where survival is the endpoint, this PubChem deposit counts one and a half times the control or more as active, and values a quarter to a half above the control carry no call in these data; other NCI protocols may use other cut-offs.
System: C3H/He mice, Gardner lymphosarcoma 6C3HED ip, survival T/C
Assay: NCI In Vivo Anticancer Drug Screen. Data for tumor model Lymphosarcoma Gardner 6C3HED (intraperitoneal) in C3H/He mice
Settings: higher T/C = longer survival
Experimental: The antitumor activity of compounds was measured in mice bearing transplantable tumors. Survival or tumor size were measured and the results are expressed as the measurement made in the treated group (T) divided by the measurement made in the vehicle treated control group (C). The tumor model used in this assay is Lymphosarcoma Gardner 6C3HED (intraperitoneal) in C3H/He mice

[1] = T/C endpoint: survival time, mean or median, dose: 20.0 mg/kg/injection, schedule: Q01DX010 (ip), vehicle: saline
[2] = T/C endpoint: survival time, mean or median, dose: 80.0 mg/kg/injection, schedule: Q01DX010 (ip), vehicle: saline
[3] = T/C endpoint: survival time, mean or median, dose: 10.0 mg/kg/injection, schedule: Q01DX010 (ip), vehicle: saline
[4] = T/C endpoint: survival time, mean or median, dose: 25.0 mg/kg/injection, schedule: Q01DX010 (ip), vehicle: saline
[5] = T/C endpoint: survival time, mean or median, dose: 62.5 mg/kg/injection, schedule: Q01DX010 (ip), vehicle: saline
[6] = T/C endpoint: survival time, mean or median, dose: 400.0 mg/kg/injection, schedule: Q01DX010 (ip), vehicle: saline
[7] = T/C endpoint: survival time, mean or median, dose: 0.5 mg/kg/injection, schedule: Q01DX010 (ip), vehicle: saline
[8] = T/C endpoint: survival time, mean or median, dose: 500.0 mg/kg/injection, schedule: Q01DX010 (ip), vehicle: saline
[9] = T/C endpoint: survival time, mean or median, dose: 2.0 mg/kg/injection, schedule: Q01DX010 (ip), vehicle: saline
[10] = T/C endpoint: survival time, mean or median, dose: 12.5 mg/kg/injection, schedule: Q01DX010 (ip), vehicle: saline
[11] = T/C endpoint: survival time, mean or median, dose: 100.0 mg/kg/injection, schedule: Q01DX010 (ip), vehicle: saline
[12] = T/C endpoint: survival time, mean or median, dose: 200.0 mg/kg/injection, schedule: Q01DX010 (ip), vehicle: saline
[13] = T/C endpoint: survival time, mean or median, dose: 32.0 mg/kg/injection, schedule: Q01DX010 (ip), vehicle: saline
[14] = T/C endpoint: survival time, mean or median, dose: 64.0 mg/kg/injection, schedule: Q01DX010 (ip), vehicle: saline
[15] = T/C endpoint: survival time, mean or median, dose: 50.0 mg/kg/injection, schedule: Q01DX010 (ip), vehicle: saline
[16] = T/C endpoint: survival time, mean or median, dose: 8.0 mg/kg/injection, schedule: Q01DX010 (ip), vehicle: saline
[17] = T/C endpoint: survival time, mean or median, dose: 16.0 mg/kg/injection, schedule: Q01DX010 (ip), vehicle: saline
[18] = T/C endpoint: survival time, mean or median, dose: 4.0 mg/kg/injection, schedule: Q01DX010 (ip), vehicle: saline

CN1CCN(CCCN2c3ccccc3Sc3ccc(C(F)(F)F)cc32)CC1
survivor count [1]: 6 of 6
survivor count (T/C endpoint: survival time, mean or median, dose: 40.0 mg/kg/injection, schedule: Q01DX010 (ip), vehicle: saline): 5 of 6
survivor count [2]: 4 of 6
survivor count (T/C endpoint: survival time, mean or median, dose: 160.0 mg/kg/injection, schedule: Q01DX010 (ip), vehicle: saline): 0 of 6

CCOC(=O)NP(=O)(N1CC1)N1CC1
T/C [3]: 135 % of control

C[C@H]1C(=O)O[C@@H]2CCN3CC=C(COC(=O)[C@](C)(O)[C@@]1(C)O)[C@H]23
T/C [4]: 145 % of control

c1ccc(CCSc2ncnc3nc[nH]c23)cc1
survivor count [5]: 6 of 6

Nc1nc(=O)n(C2CC(O)C(CO)O2)cc1Br (stereo not given)
survivor count [6]: 6 of 6
survivor count (T/C endpoint: survival time, mean or median, dose: 800.0 mg/kg/injection, schedule: Q01DX010 (ip), vehicle: saline): 6 of 6

CO[C@H](C(=O)[C@@H](O)[C@@H](C)O)[C@@H]1Cc2cc3cc(OC4CC(OC5CC(O)C(O)C(C)O5)C(O)C(C)O4)c(C)c(O)c3c(O)c2C(=O)[C@H]1OC1CC(OC2CC(OC3CC(C)(O)C(O)C(C)O3)C(O)C(C)O2)C(O)C(C)O1 (stereo not given in full)
T/C [7]: 126 % of control

CCN(CCNc1ccc(C)c2sc3cc(Cl)ccc3c(=O)c12)CC(C)O (stereo not given)
survivor count (T/C endpoint: survival time, mean or median, dose: 31.3 mg/kg/injection, schedule: Q01DX010 (ip), vehicle: saline): 5 of 6
survivor count [5]: 6 of 6
survivor count (T/C endpoint: survival time, mean or median, dose: 125.0 mg/kg/injection, schedule: Q01DX010 (ip), vehicle: saline): 6 of 6
survivor count (T/C endpoint: survival time, mean or median, dose: 250.0 mg/kg/injection, schedule: Q01DX010 (ip), vehicle: saline): 3 of 6 and 4 of 6
survivor count [8]: 0 of 6

Nc1ncnc2c1ccn2C1OC(CO)C(O)C1O (stereo not given)
survivor count [7]: 6 of 6
survivor count (T/C endpoint: survival time, mean or median, dose: 1.0 mg/kg/injection, schedule: Q01DX010 (ip), vehicle: saline): 5 of 6
survivor count [9]: 5 of 6

CCN(CC)CCCC(C)Nc1c2ccc(Cl)cc2nc2ccc(OC)cc12 (stereo not given)
survivor count [10]: 6 of 6
survivor count [4]: 6 of 6
survivor count [11]: 5 of 6
survivor count [12]: 0 of 6

CCCCn1cnc2c(=S)nc[nH]c21
survivor count [9]: 6 of 6
survivor count [13]: 6 of 6
survivor count [14]: 6 of 6
survivor count (T/C endpoint: survival time, mean or median, dose: 128.0 mg/kg/injection, schedule: Q01DX010 (ip), vehicle: saline): 6 of 6

O=C(O)c1[nH]c(=O)[nH]c(=O)c1F
survivor count (T/C endpoint: survival time, mean or median, dose: 0.63 mg/kg/injection, schedule: Q01DX010 (ip), vehicle: saline): 6 of 6
survivor count (T/C endpoint: survival time, mean or median, dose: 1.25 mg/kg/injection, schedule: Q01DX010 (ip), vehicle: saline): 6 of 6

Cn1c(N)nc2nc[nH]c2c1=S
survivor count [2]: 6 of 6

Nc1nc2n[nH]nc2c(=O)[nH]1
T/C (T/C endpoint: survival time, mean or median, dose: 25.0 mg/kg/injection, schedule: Q01DX010 (ip), vehicle: alkali diluted with saline): 130 % of control
T/C (T/C endpoint: survival time, mean or median, dose: 100.0 mg/kg/injection, schedule: Q01DX010 (ip), vehicle: alkali diluted with saline): 127 % of control
T/C (T/C endpoint: survival time, mean or median, dose: 200.0 mg/kg/injection, schedule: Q01DX010 (ip), vehicle: alkali diluted with saline): 135 % of control

NC(CC(=O)O)C(=O)O (stereo not given)
survivor count (T/C endpoint: median survival time, dose: 200.0 mg/kg/injection, schedule: Q01DX005 (ip), vehicle: water): 10 of 10
survivor count (T/C endpoint: median survival time, dose: 400.0 mg/kg/injection, schedule: Q01DX005 (ip), vehicle: water): 5 of 10 and 6 of 10
survivor count (T/C endpoint: median survival time, dose: 800.0 mg/kg/injection, schedule: Q01DX005 (ip), vehicle: water): 5 of 10

Cc1n[nH]c(=O)[nH]c1=O
survivor count [8]: 6 of 6

O=C1C(NC(=O)C2CCCCC2)=C(N2CC2)C(=O)C(NC(=O)C2CCCCC2)=C1N1CC1
survivor count [15]: 6 of 6
survivor count [11]: 6 of 6
survivor count [12]: 6 of 6
survivor count [6]: 6 of 6

C=CC(CN1CC1)OC(C)=O (stereo not given)
survivor count [16]: 6 of 6
survivor count [17]: 6 of 6

NC(Cc1ccc(N(CCCl)CCCl)cc1)C(=O)O (stereo not given)
survivor count [3]: 6 of 6
survivor count [1]: 5 of 6

CN(C)/N=N/c1nc[nH]c1C(N)=O
survivor count [6]: 5 of 6

Nc1nc(=S)c2ncn(C3OC(CO)C(O)C3O)c2[nH]1 (stereo not given)
survivor count (T/C endpoint: median survival time, dose: 16.0 mg/kg/injection, schedule: Q01DX009 (ip), vehicle: saline): 9 of 10
survivor count [18]: 6 of 6
survivor count [16]: 6 of 6

NCC(=O)O
survivor count (T/C endpoint: median survival time, dose: 1500.0 mg/kg/injection, schedule: Q04HX020 (ip), vehicle: saline): 6 of 6

CN1CC[C@]23c4c5ccc(O)c4O[C@H]2C(=O)CC[C@H]3[C@H]1C5
survivor count [16]: 6 of 6
survivor count [17]: 6 of 6
survivor count [14]: 4 of 6

CC(CCC(C)OS(C)(=O)=O)OS(C)(=O)=O (stereo not given)
survivor count [17]: 6 of 6
survivor count [13]: 6 of 6

CS(=O)(=O)OCCC(=O)N1CCN(C(=O)CCOS(C)(=O)=O)CC1
T/C [10]: 130 % of control
T/C [4]: 129 and 138 % of control
survivor count [12]: 5 of 6

COC1C(OC(=O)/C=C/C=C/C=C/C=C/C(=O)O)CCC2(CO2)C1C1(C)OC1CC=C(C)C (stereo not given)
survivor count [4]: 6 of 6
survivor count [15]: 6 of 6
survivor count [11]: 6 of 6
survivor count [12]: 3 of 6

CS(=O)(=O)OCC(O)C(O)C(O)C(O)COS(C)(=O)=O (stereo not given)
survivor count [15]: 6 of 6

Nc1nc(F)nc2c1ncn2C1OC(CO)C(O)C1O (stereo not given)
survivor count [9]: 6 of 6
survivor count [18]: 6 of 6
survivor count (T/C endpoint: survival time, mean or median, dose: 62.5 micrograms/kg/injection, schedule: Q01DX010 (ip), vehicle: saline): 6 of 6
survivor count (T/C endpoint: survival time, mean or median, dose: 125.0 micrograms/kg/injection, schedule: Q01DX010 (ip), vehicle: saline): 6 of 6
survivor count (T/C endpoint: survival time, mean or median, dose: 500.0 micrograms/kg/injection, schedule: Q01DX010 (ip), vehicle: saline): 6 of 6

CN(Cc1cnc2nc(N)nc(N)c2n1)c1ccc(C(=O)N[C@@H](CCC(=O)O)C(=O)O)cc1
survivor count (T/C endpoint: median survival time, dose: 0.5 mg/kg/injection, schedule: Q01DX009 (ip), vehicle: sodium bicarbonate): 6 of 6
survivor count (T/C endpoint: median survival time, dose: 2.0 mg/kg/injection, schedule: Q01DX009 (ip), vehicle: sodium bicarbonate): 5 of 6 and 6 of 6 (2×)

CC(N)(CC(=O)O)C(=O)O (stereo not given)
survivor count (T/C endpoint: median survival time, dose: 6.25 mg/kg/injection, schedule: Q01DX009 (ip), vehicle: saline): 6 of 6
survivor count (T/C endpoint: median survival time, dose: 25.0 mg/kg/injection, schedule: Q01DX009 (ip), vehicle: saline): 6 of 6
survivor count (T/C endpoint: median survival time, dose: 50.0 mg/kg/injection, schedule: Q01DX009 (ip), vehicle: saline): 6 of 6

CN(C)CC(=O)c1ccc(O)c(O)c1
T/C [12]: 130 and 138 % of control
T/C (T/C endpoint: survival time, mean or median, dose: 300.0 mg/kg/injection, schedule: Q01DX010 (ip), vehicle: saline): 138 % of control
T/C (T/C endpoint: survival time, mean or median, dose: 450.0 mg/kg/injection, schedule: Q01DX010 (ip), vehicle: saline): 133 and 134 % of control
T/C (T/C endpoint: survival time, mean or median, dose: 675.0 mg/kg/injection, schedule: Q01DX010 (ip), vehicle: saline): 138 % of control

Cc1cc2nc3c(=O)[nH]c(=O)nc-3n(CC(O)C(O)C(O)C(O)CO)c2cc1C (stereo not given)
survivor count [15]: 6 of 6
survivor count [12]: 6 of 6

CCC1=C(c2ccc(OC)cc2)CCC(C(=O)O)C1C (stereo not given)
survivor count (T/C endpoint: survival time, mean or median, dose: 200.0 mg/kg/injection, schedule: Q01DX010 (sc), vehicle: steroid suspending solution): 6 of 6

Cc1cn(C2OC(CO)C(O)C2O)c(=O)[nH]c1=O (stereo not given)
survivor count [5]: 6 of 6

— PubChem BioAssay AID230 (DTP/NCI, 2004)
